Hit rate of the full screen: of about 53,000 sequences, about 3,700 (7%) were called active.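 The calls were made as follows: active = gene knockdowns whose robust z-score for IL-1 alpha signal is at least 2 or at most -2, so actives lie on both sides; inactive = the rest.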 The list shows a part of the results.
Assay: Components of the Cytosolic LPS Sensing Pathway: Gene Identification via Genome-wide siRNA Screen;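 also: robust z of the log signal after scaling to non-targeting control siRNA wells of the plate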
Conditions: RAW264.7 macrophages, IL-1a HTRF, actives lie on both sides, screened at 100 nM (by protocol), cells primed 5 h with Pam3CSK4 first
In short: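 Read-out: IL-1a HTRF on supernatant, divided by plate negative-control median ×100, log-transformed and converted to robust z-score. Cells were RAW264.7 given 100 nM siRNA, Pam3CSK4-primed 5 hours, then LipidA-transfected 24 hour.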

z-score, inactive:
GGGUGUGCAUUUGUACUACTT against Smad9 1.21
GCUGCUAAGUGAAUCCAACTT against Ppfia3 0.379
CCUUGCUCUGGCAAUCUGATT against G930045G22Rik 1.04
GGCUCUUAGGACGUGUAUATT against Med31 -0.411
GGUCAACUUUGGCCUCUAUTT against Gpr142 0.469
GGAGCCAUUGUGAAUGUCUTT against Dcxr -0.893
GGUGGUCUUCAAGUCUGACTT against Cdcp2 1.95
GCUACUCUUUGUCUCAUGUTT against Hexb -0.826
GGAUUUUAGCUCUGAUUCATT against Thsd7b 0.509
CCAAGUACAUACUUCUCAUTT against Tbx4 -1.07
GCGCAUCCUAUUUUGAGAATT against Snx6 -0.78
CCGGAAACUUCCUACGUGUTT against Cbln1 -0.424
GGAGUUCCUAUGAUCAAAUTT against Sgf29 0.509
CCCUAAGUAUAGGAUCGGATT against Macroh2a1 -1.07
GCUGGAAUAUCAUUUCCCATT against Pdpk1 -1.01
GCUAUUGGAGGAAUGUAUCTT against Rasgrp4 -1.51
GGAGAGACAGCAGUGAACATT against Dvl2 0.43
CCAUUUCAAGCUCGAUAUGTT against Pde7b 0.441
GGCCAUCUUCCGAUUCUCUTT against Scn4a -1.14
CCGGAUCCAGAAUACAUUATT against Aff3 1.03
GCACGCGCACCUACAAAAUTT against Sostdc1 0.552
GCUAGGGAUUUACCUCUUCTT against Gpr65 0.743
GUUGCCAGAUUUGGAUAUUTT against Abcg5 0.664
GAUGGGACAGUAAAACAAATT against Klra3 -0.981
GGCCCAGAAGAUGAUGAGATT against Kcne1l -0.412
GCUGAAGUUACCAUAACCCTT against Cd84 0.139
GGCAAGUUUGAGUUUUAGUTT against Zc3h12d 1.36
GCCCAGAUACAACCAGACUTT against Ticam1 1.46
GGUUUAAGGUAGUUCAUGATT against Faf1 -0.0439
GCGGAAUGUACCAAGACGATT against Apoh 0.222
CCAUACAGAGGUGACAGUUTT against Olfr816 -0.23
GGACUGAGAAAAUGUAUAUTT against Nek3 -0.968
GGAUUAGUGCAGGAAUCAATT against Rel 0.922
GGGUAAAAGUUGAGUAAAATT against Ppp1r14c -1.25
GGUCUCCAUAAGUGUCAGCTT against Cntfr -0.407
GGAAAAGAAAGUCUGCCAATT against Egfr 0.364
GCUCUAUGAACCAGCUUCATT against Plekha6 0.272
CGGCGACAUUGUUUUGCUATT against Acvr2a 1.19
GGUCAUUCUUAAUUGUUCATT against Kpna6 0.939
CGCAUCAGUUUCUAUAAGATT against Rp1 0.192
GGACUCUCCUAUGUUAUAGTT against Nphs2 0.183
GGCAACAUGGUGAUCAUCGTT against Olfr323 -0.461
GGGCCCGAUAGAUAUAAACTT against B4galt5 0.127
GGAGUCCUGAAGAAUAAAGTT against Tff3 -0.0657
GCACUUGGGUAAAAAACUCTT against Bcorl1 0.394
AUCUAUUCGAAUCAGGAAGTT against Epsti1 -0.102
GGGAAAAAGCUAGAAAAAGTT against Gp1ba 0.412
CCUGAUGCACUACUCGUCUTT against Dmbx1 -0.131
GGAGAAAGGAUCUCAGUGUTT against Miga1 -0.532
GGAAAAGACUAACGAGCGGTT against Med11 -0.703
GGCUGUGGAUCUUCUCUGUTT against Cnksr3 -1.05
GGUCUUUAUUUACCUCUUUTT against Cyp2c39 0.659
GCAACGAAGUGAAUUUGUUTT against Epha5 -0.139
GAUAUAAUUACUGAACCACTT against Gm5128 -0.00502
GGUUUGAGGCGAGCUAACUTT against Rph3a 0.244
GGCCUAUUCAAAAAUCAGCTT against Fndc7 -0.186
GGAACAUCUUUCUUCUCCATT against Abhd4 -0.869
GGAGGAGUGAUUGUUAUACTT against Slfn9 -0.499
CCACUUUCACCACAAAGUCTT against Klre1 -0.384
GGAAGCUGGCUGGAAAGAUTT against Saa2 1.16
GGUUAUUUUGUUGGAAGUCTT against Csrnp2 -0.231
GUGAUAAAUGCUGAUAGUGTT against Olfr1280 -0.515
CGGGCUGCUACGAAAAAGUTT against Tspan9 0.152
GGAUUAUCCUGGCUUGUUGTT against Rdh12 -0.962
GCAUAUGAUUAUUCUGGGATT against Cox7a2l -0.203
CGUUUGAAUAAUUCAGAGUTT against Armcx2 -0.152
GGACGGACCUUUGUGUCUCTT against Axl 0.13
GGGUUACUUUAGCUAUUUCTT against Rbm14 -1.11
GGAACAGUGAUCCAUUUUATT against Btf3 0.11
GGUGGACCUGAAACGUAGCTT against Inhbb 0.878
CCUGCCAAGCAGAUUUUAUTT against Rtbdn -1.46
GGAGAAUGUGCAUAAACUGTT against Pitpna -0.0799
GGCUGAUGGAAUUGUCUCATT against Rps21 -0.712
GGAGCUUGCUCAGACUACUTT against Cct8 -0.914
GGUUGAGUACACCAAGAAUTT against Dcx 0.961
GCAACCUGAUAGUGUGGUCTT against Crisp1 1.53
GCCUUCUGAGAUAGUAGAUTT against Zcchc17 0.756
GGAACAAGUGGUAUUCCCGTT against Pip4p2 0.329
GGGUUCAAGAGAUGGGAAUTT against Efna5 0.453
GCUUCGAAGGCAAAUGUGGTT against Vamp4 -0.142
GGAGCUGGAACAGAUGGAATT against Atf5 0.967
CCUUAGGACAAGUAUUCUGTT against Cbx6 0.47
GGAAGAAUUGAAUUGUAUGTT against Pom121 1.37
GGCAAUGAUGAGACCUAGUTT against Mybbp1a 0.0956
GGUGUCUGUCAUGACCAUGTT against Tie1 0.907
CCAGUAAACCUACAUGUUCTT against Htr3b -0.024
GGCUACAAAGAUGCAGACUTT against Pi4k2a 0.22
CCCAAAUCCUACGAAGCCUTT against Tanc1 -1.9
GGAUCACUACAAGUUGGCUTT against Gtpbp4 -1.52
CCUCAAUCCUGGUCUAAAATT against Plcl2 -0.342
UGCCAUGGGACUCAUAGGCTT against Olfr160 -1.76
GGAACACCUUGAAUGAUGUTT against Efcab9 -1.76
GGCUGUCCAGACUAGUUCUTT against Lsm14b -0.317
CCAUUCUCCUCAGAUACUCTT against Slc25a17 -1.38
GGUUCACCAUCAAACCCUUTT against Plbd2 -0.69
GCAAACUGUGGACAUUUAATT against Gabra5 0.82
AAUCUUGAGAGAUUUCUCCTT against Scd2 -0.047
GGUCAUAUGAGCGCACAGGTT against Ccnl2 0.748
CCCAGAUGGAUUUUUGCAUTT against Gm10413 0.102
GGCAUUCGAGGAGACUCAUTT against Pnpo -1.61

z-score, active:
GCUCCUAGUGUUUUUGUGGTT against Rplp0 -2.91
GCUAGUUAUCUAAUCUCUGTT against Nuak1 2.79
GGGUUGUCUUCAUCUACUUTT against Crhr1 3.47
CGGCAGAUUGCUGCUUUGATT against Vmn2r122 2.73
GGGUCCUUUUUCACAUGGUTT against Asph 2.82
GGUUCUAAAACUUAACAAGTT against Brf2 2.7
CCUUUGGACGCAACCAGUUTT against Ugt1a6b 2.04

Reference: PubChem BioAssay AID1508600 (Functional Genomics Laboratory (NCATS/FGL), 2020)
